Test results as given in the supplement of paper PMC10849652.
Some of the results follow.

The chains behind the UniProt entries cited, without tags or fusion partners. Where a name states a change or a piece, a line headed by the entry shows the natural chain unless it says otherwise.
UniProt P32321: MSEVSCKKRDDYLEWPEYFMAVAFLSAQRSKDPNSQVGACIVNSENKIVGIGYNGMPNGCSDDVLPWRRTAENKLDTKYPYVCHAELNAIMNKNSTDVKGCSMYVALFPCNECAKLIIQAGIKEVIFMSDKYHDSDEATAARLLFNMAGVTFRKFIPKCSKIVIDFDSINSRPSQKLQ
UniProt Q53TN4: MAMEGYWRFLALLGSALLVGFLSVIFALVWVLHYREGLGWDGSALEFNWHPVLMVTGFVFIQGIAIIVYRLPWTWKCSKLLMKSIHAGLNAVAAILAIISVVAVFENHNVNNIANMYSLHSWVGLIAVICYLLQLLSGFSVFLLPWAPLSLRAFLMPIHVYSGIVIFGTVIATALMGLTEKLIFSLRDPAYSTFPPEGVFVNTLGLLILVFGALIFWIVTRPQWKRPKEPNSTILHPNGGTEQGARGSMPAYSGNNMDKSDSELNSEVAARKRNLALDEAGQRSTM
UniProt Q5TAQ9: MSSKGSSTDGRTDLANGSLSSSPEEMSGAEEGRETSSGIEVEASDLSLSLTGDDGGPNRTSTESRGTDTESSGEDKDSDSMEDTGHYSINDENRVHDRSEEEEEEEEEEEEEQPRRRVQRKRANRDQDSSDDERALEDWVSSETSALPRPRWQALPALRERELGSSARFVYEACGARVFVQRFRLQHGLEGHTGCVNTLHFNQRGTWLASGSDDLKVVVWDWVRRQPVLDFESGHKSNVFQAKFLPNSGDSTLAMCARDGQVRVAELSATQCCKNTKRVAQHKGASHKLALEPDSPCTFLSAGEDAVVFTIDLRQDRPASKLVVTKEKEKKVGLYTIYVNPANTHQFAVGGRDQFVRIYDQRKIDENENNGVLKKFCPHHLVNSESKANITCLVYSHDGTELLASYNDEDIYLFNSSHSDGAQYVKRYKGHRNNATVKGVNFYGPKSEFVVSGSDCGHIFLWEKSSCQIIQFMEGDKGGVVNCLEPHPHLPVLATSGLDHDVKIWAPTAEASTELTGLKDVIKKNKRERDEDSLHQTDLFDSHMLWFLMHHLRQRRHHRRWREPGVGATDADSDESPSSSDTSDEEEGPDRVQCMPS
UniProt Q6VVX0: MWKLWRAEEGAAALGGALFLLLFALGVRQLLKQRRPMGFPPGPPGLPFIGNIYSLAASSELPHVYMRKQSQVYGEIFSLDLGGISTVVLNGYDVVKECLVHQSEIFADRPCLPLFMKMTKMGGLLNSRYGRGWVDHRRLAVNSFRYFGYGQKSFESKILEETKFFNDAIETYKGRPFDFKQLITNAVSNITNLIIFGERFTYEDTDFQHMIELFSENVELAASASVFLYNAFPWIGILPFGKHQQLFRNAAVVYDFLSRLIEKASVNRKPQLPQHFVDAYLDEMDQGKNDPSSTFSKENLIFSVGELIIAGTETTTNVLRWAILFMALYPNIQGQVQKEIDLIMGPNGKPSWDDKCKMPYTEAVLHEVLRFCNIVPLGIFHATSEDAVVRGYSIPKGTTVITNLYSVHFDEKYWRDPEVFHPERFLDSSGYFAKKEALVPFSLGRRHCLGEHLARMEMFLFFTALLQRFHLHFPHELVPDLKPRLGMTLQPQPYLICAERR
UniProt Q8NCG7: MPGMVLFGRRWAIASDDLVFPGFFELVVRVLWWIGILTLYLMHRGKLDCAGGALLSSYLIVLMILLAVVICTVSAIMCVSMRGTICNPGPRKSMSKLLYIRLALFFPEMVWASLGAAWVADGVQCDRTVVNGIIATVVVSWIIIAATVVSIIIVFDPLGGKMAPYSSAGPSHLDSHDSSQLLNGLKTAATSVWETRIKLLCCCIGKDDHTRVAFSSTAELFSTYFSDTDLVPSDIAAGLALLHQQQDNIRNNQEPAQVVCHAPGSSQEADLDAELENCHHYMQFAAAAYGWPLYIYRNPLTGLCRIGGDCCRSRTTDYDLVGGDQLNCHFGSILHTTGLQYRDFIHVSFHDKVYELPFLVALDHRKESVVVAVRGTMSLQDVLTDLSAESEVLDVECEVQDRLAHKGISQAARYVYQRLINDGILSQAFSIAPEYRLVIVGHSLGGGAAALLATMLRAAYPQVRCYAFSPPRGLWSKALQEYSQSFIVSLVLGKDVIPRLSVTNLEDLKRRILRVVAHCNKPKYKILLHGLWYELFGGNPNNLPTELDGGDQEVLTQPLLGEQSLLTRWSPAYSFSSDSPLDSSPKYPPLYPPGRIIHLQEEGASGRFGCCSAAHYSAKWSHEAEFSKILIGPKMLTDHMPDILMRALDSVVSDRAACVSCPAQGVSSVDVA
UniProt Q13616, whole entry, looked up: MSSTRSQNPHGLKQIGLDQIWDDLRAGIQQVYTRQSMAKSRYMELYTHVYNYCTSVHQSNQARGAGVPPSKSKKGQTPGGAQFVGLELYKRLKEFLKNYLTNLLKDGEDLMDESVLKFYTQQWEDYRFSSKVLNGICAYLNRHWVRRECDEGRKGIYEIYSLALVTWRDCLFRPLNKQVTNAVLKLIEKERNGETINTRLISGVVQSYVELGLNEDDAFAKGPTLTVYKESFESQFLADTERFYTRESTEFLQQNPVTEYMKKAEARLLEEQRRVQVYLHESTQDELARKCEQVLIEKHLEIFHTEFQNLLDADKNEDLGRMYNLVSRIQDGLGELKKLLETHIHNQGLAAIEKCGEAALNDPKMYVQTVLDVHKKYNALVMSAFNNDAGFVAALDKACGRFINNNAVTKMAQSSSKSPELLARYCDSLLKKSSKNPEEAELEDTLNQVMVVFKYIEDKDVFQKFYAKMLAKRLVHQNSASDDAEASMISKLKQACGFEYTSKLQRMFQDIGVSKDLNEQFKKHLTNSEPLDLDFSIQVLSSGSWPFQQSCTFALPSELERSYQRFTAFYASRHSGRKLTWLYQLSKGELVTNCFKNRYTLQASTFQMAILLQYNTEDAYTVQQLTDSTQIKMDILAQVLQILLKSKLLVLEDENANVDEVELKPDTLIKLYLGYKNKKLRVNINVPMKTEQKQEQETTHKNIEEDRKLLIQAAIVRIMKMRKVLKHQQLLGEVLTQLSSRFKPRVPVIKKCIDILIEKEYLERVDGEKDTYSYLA
UniProt Q9P013: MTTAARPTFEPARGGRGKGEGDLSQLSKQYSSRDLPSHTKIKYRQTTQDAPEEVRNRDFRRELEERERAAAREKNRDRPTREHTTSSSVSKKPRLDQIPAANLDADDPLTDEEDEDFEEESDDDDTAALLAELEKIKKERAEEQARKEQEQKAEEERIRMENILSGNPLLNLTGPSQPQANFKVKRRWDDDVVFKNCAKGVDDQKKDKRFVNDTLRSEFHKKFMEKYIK
UniProt Q9NXE8: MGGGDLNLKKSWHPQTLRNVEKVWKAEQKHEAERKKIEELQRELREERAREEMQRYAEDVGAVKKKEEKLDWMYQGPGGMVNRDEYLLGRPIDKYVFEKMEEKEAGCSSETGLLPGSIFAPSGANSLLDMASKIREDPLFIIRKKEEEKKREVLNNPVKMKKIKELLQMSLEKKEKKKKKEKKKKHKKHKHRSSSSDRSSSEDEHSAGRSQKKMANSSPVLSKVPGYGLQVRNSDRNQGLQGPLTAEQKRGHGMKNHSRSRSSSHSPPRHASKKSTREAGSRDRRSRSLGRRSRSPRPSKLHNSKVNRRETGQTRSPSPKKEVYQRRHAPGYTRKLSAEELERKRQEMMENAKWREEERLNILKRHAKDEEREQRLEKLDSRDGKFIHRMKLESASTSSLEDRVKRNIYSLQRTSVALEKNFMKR
UniProt Q92564: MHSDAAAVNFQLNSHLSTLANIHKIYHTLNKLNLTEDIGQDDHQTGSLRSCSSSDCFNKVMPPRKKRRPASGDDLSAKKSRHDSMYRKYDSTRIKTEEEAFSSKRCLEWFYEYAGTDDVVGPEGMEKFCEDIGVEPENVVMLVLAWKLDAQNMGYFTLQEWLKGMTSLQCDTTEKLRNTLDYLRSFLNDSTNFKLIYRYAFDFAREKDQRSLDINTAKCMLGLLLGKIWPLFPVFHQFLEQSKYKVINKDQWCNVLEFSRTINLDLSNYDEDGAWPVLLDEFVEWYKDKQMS
UniProt O75935, whole entry, looked up: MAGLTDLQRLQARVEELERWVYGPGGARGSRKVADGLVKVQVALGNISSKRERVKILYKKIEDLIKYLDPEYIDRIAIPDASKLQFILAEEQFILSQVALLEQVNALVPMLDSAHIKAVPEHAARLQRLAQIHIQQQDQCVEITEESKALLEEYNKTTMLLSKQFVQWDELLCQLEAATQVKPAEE
UniProt Q96C57: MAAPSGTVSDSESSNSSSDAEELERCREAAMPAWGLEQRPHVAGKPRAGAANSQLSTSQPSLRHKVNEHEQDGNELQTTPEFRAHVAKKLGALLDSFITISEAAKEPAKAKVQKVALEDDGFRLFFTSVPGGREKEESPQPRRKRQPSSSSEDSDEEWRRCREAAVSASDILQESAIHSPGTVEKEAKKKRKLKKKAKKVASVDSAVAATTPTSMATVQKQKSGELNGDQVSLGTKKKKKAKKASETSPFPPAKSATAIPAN
UniProt P04080: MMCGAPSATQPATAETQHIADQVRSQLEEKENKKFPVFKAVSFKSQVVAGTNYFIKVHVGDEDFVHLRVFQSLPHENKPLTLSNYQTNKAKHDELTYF
UniProt Q7L1T6: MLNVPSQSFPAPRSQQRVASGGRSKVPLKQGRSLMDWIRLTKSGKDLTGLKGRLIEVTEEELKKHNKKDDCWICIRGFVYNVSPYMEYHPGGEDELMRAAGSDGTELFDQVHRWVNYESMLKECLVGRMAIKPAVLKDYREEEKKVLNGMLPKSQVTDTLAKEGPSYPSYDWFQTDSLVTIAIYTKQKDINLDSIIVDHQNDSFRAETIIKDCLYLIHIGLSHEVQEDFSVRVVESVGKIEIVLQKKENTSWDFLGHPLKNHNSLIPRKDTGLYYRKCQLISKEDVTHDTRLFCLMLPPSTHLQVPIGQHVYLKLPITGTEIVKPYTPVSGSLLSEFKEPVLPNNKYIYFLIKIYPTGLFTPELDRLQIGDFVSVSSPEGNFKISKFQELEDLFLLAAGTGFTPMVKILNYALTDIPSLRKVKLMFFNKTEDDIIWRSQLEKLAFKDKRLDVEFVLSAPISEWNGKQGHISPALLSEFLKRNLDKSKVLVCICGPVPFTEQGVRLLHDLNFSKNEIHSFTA
UniProt Q9H0L4: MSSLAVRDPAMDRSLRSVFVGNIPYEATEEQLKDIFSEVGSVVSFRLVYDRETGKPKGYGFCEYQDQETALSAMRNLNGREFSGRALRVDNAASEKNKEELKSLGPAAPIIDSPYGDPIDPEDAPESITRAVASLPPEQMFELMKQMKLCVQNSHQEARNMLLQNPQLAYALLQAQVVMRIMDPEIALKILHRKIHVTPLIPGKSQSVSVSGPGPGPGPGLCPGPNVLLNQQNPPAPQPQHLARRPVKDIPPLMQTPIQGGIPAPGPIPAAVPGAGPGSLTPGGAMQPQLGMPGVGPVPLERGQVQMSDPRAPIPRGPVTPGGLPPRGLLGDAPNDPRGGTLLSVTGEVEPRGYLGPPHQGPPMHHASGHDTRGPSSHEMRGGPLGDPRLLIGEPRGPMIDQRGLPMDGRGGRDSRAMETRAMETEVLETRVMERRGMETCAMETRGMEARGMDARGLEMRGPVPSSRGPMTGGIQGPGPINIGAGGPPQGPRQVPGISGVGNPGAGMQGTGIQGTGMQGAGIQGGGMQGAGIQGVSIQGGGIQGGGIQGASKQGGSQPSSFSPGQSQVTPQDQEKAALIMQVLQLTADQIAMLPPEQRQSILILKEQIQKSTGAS
UniProt Q9NPI6: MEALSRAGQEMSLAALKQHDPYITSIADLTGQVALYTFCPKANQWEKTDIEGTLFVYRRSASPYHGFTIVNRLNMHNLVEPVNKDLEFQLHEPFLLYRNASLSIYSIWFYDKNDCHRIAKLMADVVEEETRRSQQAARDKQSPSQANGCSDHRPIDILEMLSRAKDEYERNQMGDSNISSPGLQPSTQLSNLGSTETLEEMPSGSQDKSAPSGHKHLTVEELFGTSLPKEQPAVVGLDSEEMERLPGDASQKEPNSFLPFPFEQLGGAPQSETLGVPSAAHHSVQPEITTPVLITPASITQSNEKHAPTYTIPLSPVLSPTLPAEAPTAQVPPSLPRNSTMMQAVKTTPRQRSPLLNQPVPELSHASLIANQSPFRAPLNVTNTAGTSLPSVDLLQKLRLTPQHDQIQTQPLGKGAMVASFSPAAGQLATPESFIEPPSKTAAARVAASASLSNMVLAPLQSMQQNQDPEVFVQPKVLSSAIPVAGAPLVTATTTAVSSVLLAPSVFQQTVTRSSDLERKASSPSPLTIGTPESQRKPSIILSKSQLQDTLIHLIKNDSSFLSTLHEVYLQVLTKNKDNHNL
UniProt O00399, whole entry, looked up: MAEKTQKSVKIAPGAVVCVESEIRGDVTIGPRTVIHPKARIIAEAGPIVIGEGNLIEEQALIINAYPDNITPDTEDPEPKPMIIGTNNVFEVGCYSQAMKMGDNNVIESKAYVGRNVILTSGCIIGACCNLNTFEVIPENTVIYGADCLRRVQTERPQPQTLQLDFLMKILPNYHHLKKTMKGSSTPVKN
UniProt P07108: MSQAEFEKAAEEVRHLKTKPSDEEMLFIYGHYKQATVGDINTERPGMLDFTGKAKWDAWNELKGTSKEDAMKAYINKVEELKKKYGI
UniProt Q9H1C7: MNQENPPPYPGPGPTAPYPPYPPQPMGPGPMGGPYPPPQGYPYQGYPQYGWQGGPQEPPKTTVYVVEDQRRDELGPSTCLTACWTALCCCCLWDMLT

compound: c1cn2cc(-c3ccc4cn[nH]c4c3)nc(Nc3ccc(N4CCOCC4)cc3)c2n1 [entospletinib]; experiment: log2 fold change, soluble protein after heating vs DMSO (PISA); higher = thermal stabilisation; K562 cells, 10 uM, 30 min; active = over 0.2 and 3.5 SD of the protein, either way, in both replicates (recomputed)
Method in brief: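 Quantification of soluble protein used TMTpro 16plex LC-MS/MS, with channel sums equalised. Samples were the supernatant after 21,000xg for 90 min of pooled aliquots from K562 cells (2×10^6 cells/mL) treated with 10 μM compound for 30 min, heated for 3 min over 48°C-58°C, and extracted in PBS with 0.5% NP-40 at 4°C. Values, from duplicates, describe thermal stability against control samples on a log2 fold-change scale.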

log2 fold change, inactive:
DCTD isoform 2 (UniProt P32321) 0.044
CYBRD1 (UniProt Q53TN4) 0.147
CTPS1 (UniProt P17812) -0.034
DCAF8 (UniProt Q5TAQ9) 0.014
CYP2R1 (UniProt Q6VVX0) 0.012
DAGLB (UniProt Q8NCG7) 0.001
CYBC1 (UniProt Q9BQA9) -0.106
CUL1 (UniProt Q13616) -0.019
CWC15 (UniProt Q9P013) 0.079
CWC25 (UniProt Q9NXE8) -0.055
DCUN1D4 isoform 3 (UniProt Q92564) -0.117
DCAKD (UniProt Q8WVC6) 0.036
DCTN3 (UniProt O75935) -0.022
CSRP3 (UniProt P50461) -0.058
CUSTOS (UniProt Q96C57) 0.036
CST6 (UniProt Q15828) -0.009
D2HGDH (UniProt Q8N465) 0.028
DARS2 (UniProt Q6PI48) -0.025
CSTB (UniProt P04080) -0.02
CYB5R4 (UniProt Q7L1T6) 0.013
CSTF2T (UniProt Q9H0L4) -0.054
DAP3 (UniProt P51398) 0.058
DCP1A (UniProt Q9NPI6) 0.063
CSPP1 (UniProt Q1MSJ5) 0.104
DCTN6 (UniProt O00399) 0.017
CTNNA1 isoform 2 (UniProt P35221) -0.032
DBI isoform 5 (UniProt P07108) 0.076
CTBP2 isoform 2 (UniProt P56545) -0.073
CYSTM1 (UniProt Q9H1C7) -0.081

2 successive records already listed, quoted:
log2 fold change, inactive:
CTNNA1 isoform 2 (UniProt P35221) -0.032
DBI isoform 5 (UniProt P07108) 0.076
